These are yes or no findings as the source states them, for the method shown. In cells and extracts the contact can be indirect. Here binding means that the protein was enriched with, or labelled near, the bait; the list need not be complete. Where a sequence is shown, tags or fusion partners need not be part of it.

For the experiment, the target named is T1, full length TRIM14 ORF tagged at the C-terminus with 3xFLAG (human) (UniProt Q14142).
T1 sequence: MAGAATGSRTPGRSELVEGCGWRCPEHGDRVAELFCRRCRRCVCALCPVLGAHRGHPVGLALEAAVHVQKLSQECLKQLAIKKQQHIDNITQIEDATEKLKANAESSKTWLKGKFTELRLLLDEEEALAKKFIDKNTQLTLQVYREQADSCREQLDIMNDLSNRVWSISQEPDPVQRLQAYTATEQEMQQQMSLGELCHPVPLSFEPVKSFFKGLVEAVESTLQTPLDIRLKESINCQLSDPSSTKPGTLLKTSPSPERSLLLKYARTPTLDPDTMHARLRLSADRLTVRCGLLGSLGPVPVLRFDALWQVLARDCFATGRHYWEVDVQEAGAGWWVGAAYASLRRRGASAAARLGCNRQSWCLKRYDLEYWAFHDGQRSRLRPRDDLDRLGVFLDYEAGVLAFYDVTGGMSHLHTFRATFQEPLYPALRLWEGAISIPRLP
As to the kind of experiment: affinity purification with mass spectrometry; anti-FLAG affinity gel IP of C-terminally 3xFLAG-tagged TRIM14 from HEK293T lysate 48 h after transfection, overnight at 4 °C; eluted with 0.15% TFA, trypsin, LC-MS/MS; proteins also found with empty FLAG vector excluded; hits seen in at least 2 of 3 biological experiments.

B1: Isoform 2 of Melanoma-associated antigen D1 (protein, UniProt Q9Y5V3-2 1-834)
chain: MAQKMDCGAGLLGFQNPDACRAVCHPLPQPPASTLPLSAFPTLCDPPYSQLRDPPAVLSCYCTPLGASPAPAEASVEDSALLMQTLMEAIQISEAPPTNQATAAASPQSSQPPTANEMADIQVSAAAARPKSAFKVQNATTKGPNGVYDFSQAHNAKDVPNTQPKAAFKSQNATPKGPNAAYDFSQAATTGELAANKSEMAFKAQNATTKVGPNATYNFSQSLNANDLANSRPKTPFKAWNDTTKAPTADTQTQNVNQAKMATSQADIETDPGISEPDGATAQTSADGSQAQNLESRTIIRGKRTRKINNLNVEENSSGDQRRAPLAAGTWRSAPVPVTTQNPPGAPPNVLWQTPLAWQNPSGWQNQTARQTPPARQSPPARQTPPAWQNPVAWQNPVIWPNPVIWQNPVIWPNPIVWPGPVVWPNPLAWQNPPGWQTPPGWQTPPGWQGPPDWQGPPDWPLPPDWPLPPDWPLPTDWPLPPDWIPADWPIPPDWQNLRPSPNLRPSPNSRASQNPGAAQPRDVALLQERANKLVKYLMLKDYTKVPIKRSEMLRDIIREYTDVYPEIIERACFVLEKKFGIQLKEIDKEEHLYILISTPESLAGILGTTKDTPKLGLLLVILGVIFMNGNRASEAVLWEALRKMGLRPGVRHPLLGDLRKLLTYEFVKQKYLDYRRVPNSNPPEYEFLWGLRSYHETSKMKVLRFIAEVQKRDPRDWTAQFMEAADEALDALDAAAAEAEARAEARTRMGIGDEAVSGPWSWDDIEFELLTWDEEGDFGDPWSRIPFTFWARYHQNARSRFPQTFAGPIIGPGGTASANFAANFGAIGFFWVE
With B1, the binding result is given as “binds”.

B2: Cysteine and glycine-rich protein 2 (protein, UniProt Q16527 1-193)
chain: MPVWGGGNKCGACGRTVYHAEEVQCDGRSFHRCCFLCMVCRKNLDSTTVAIHDEEIYCKSCYGKKYGPKGYGYGQGAGTLNMDRGERLGIKPESVQPHRPTTNPNTSKFAQKYGGAEKCSRCGDSVYAAEKIIGAGKPWHKNCFRCAKCGKSLESTTLTEKEGEIYCKGCYAKNFGPKGFGYGQGAGALVHAQ
As for B2, the binding entry is “binds”.

B3: Isoform 2 of Caseinolytic peptidase B protein homolog (protein, UniProt Q9H078-2 37-677)
chain: VTTGSLGEPQWLRVATGGRPGTSPALFSGRGAATGGRQGGRFDTKCLAAATWGRLPGPEETLPGQDSWNGVPSRAGLGMCALAAALVVHCYSKSPSNKDAALLEAARANNMQEVSRLLSEGADVNAKHRLGWTALMVAAINRNNSVVQVLLAAGADPNLGDDFSSVYKTAKEQGIHSLEVLITREDDFNNRLNNRASFKGCTALHYAVLADDYRTVKELLDGGANPLQRNEMGHTPLDYAREGEVMKLLRTSEAKYQEKQRKREAEERRRFPLEQRLKEHIIGQESAIATVGAAIRRKENGWYDEEHPLVFLFLGSSGIGKTELAKQTAKYMHKDAKKGFIRLDMSEFQERHEVAKFIGSPPGYVGHEEGGQLTKKLKQCPNAVVLFDEVDKAHPDVLTIMLQLFDEGRLTDGKGKTIDCKDAIFIMTSNVASDEIAQHALQLRQEALEMSRNRIAENLGDVQISDKITISKNFKENVIRPILKAHFRRDEFLGRINEIVYFLPFCHSELIQLVNKELNFWAKRAKQRHNITLLWDREVADVLVDGYNVHYGARSIKHEVERRVVNQLAAAYEQDLLPGGCTLRITVEDSDKQLLKSPELPSPQAEKRLPKLRLEIIDKDSKTRRLDIRAPLHPEKVCNTI
In the case of B3, the binding entry was “binds”.

B4: Methionyl-tRNA synthetase (protein, UniProt P56192 1-900)
chain: MRLFVSDGVPGCLPVLAAAGRARGRAEVLISTVGPEDCVVPFLTRPKVPVLQLDSGNYLFSTSAICRYFFLLSGWEQDDLTNQWLEWEATELQPALSAALYYLVVQGKKGEDVLGSVRRALTHIDHSLSRQNCPFLAGETESLADIVLWGALYPLLQDPAYLPEELSALHSWFQTLSTQEPCQRAAETVLKQQGVLALRPYLQKQPQPSPAEGRAVTNEPEEEELATLSEEEIAMAVTAWEKGLESLPPLRPQQNPVLPVAGERNVLITSALPYVNNVPHLGNIIGCVLSADVFARYSRLRQWNTLYLCGTDEYGTATETKALEEGLTPQEICDKYHIIHADIYRWFNISFDIFGRTTTPQQTKITQDIFQQLLKRGFVLQDTVEQLRCEHCARFLADRFVEGVCPFCGYEEARGDQCDKCGKLINAVELKKPQCKVCRSCPVVQSSQHLFLDLPKLEKRLEEWLGRTLPGSDWTPNAQFITRSWLRDGLKPRCITRDLKWGTPVPLEGFEDKVFYVWFDATIGYLSITANYTDQWERWWKNPEQVDLYQFMAKDNVPFHSLVFPCSALGAEDNYTLVSHLIATEYLNYEDGKFSKSRGVGVFGDMAQDTGIPADIWRFYLLYIRPEGQDSAFSWTDLLLKNNSELLNNLGNFINRAGMFVSKFFGGYVPEMVLTPDDQRLLAHVTLELQHYHQLLEKVRIRDALRSILTISRHGNQYIQVNEPWKRIKGSEADRQRAGTVTGLAVNIAALLSVMLQPYMPTVSATIQAQLQLPPPACSILLTNFLCTLPAGHQIGTVSPLFQKLENDQIESLRQRFGGGQAKTSPKPAVVETVTTAKPQQIQALMDEVTKQGNIVRELKAQKADKNEVAAEVAKLLDLKKQLAVAEGKPPEAPKGKKKK
Turning to B4, the binding entry is “binds”.

B5: Reticulocalbin-1 (protein, UniProt Q15293 30-331)
chain: KPTVRKERVVRPDSELGERPPEDNQSFQYDHEAFLGKEDSKTFDQLTPDESKERLGKIVDRIDNDGDGFVTTEELKTWIKRVQKRYIFDNVAKVWKDYDRDKDDKISWEEYKQATYGYYLGNPAEFHDSSDHHTFKKMLPRDERRFKAADLNGDLTATREEFTAFLHPEEFEHMKEIVVLETLEDIDKNGDGFVDQDEYIADMFSHEENGPEPDWVLSEREQFNEFRDLNKDGKLDKDEIRHWILPQDYDHAQAEARHLVYESDKNKDEKLTKEEILENWNMFVGSQATNYGEDLTKNHDEL
With B5, the binding result is on record as “binds”.

B6: RNA polymerase II-associated protein 1 (protein, UniProt Q9BWH6 1-1393)
chain: MLSRPKPGESEVDLLHFQSQFLAAGAAPAVQLVKKGNRGGGDANSDRPPLQDHRDVVMLDNLPDLPPALVPSPPKRARPSPGHCLPEDEDPEERLRRHDQHITAVLTKIIERDTSSVAVNLPVPSGVAFPAVFLRSRDTQGKSATSGKRSIFAQEIAARRIAEAKGPSVGEVVPNVGPPEGAVTCETPTPRNQGCQLPGSSHSFQGPNLVTGKGLRDQEAEQEAQTIHEENIARLQAMAPEEILQEQQRLLAQLDPSLVAFLRSHSHTQEQTGETASEEQRPGGPSANVTKEEPLMSAFASEPRKRDKLEPEAPALALPVTPQKEWLHMDTVELEKLHWTQDLPPVRRQQTQERMQARFSLQGELLAPDVDLPTHLGLHHHGEEAERAGYSLQELFHLTRSQVSQQRALALHVLAQVISRAQAGEFGDRLAGSVLSLLLDAGFLFLLRFSLDDRVDGVIATAIRALRALLVAPGDEELLDSTFSWYHGALTFPLMPSQEDKEDEDEDEECPAGKAKRKSPEEESRPPPDLARHDVIKGLLATSLLPRLRYVLEVTYPGPAVVLDILAVLIRLARHSLESATRVLECPRLIETIVREFLPTSWSPVGAGPTPSLYKVPCATAMKLLRVLASAGRNIAARLLSSFDLRSRLCRIIAEAPQELALPPEEAEMLSTEALRLWAVAASYGQGGYLYRELYPVLMRALQVVPRELSTHPPQPLSMQRIASLLTLLTQLTLAAGSTPAETISDSAEASLSATPSLVTWTQVSGLQPLVEPCLRQTLKLLSRPEMWRAVGPVPVACLLFLGAYYQAWSQQPSSCPEDWLQDMQRLSEELLLPLLSQPTLGSLWDSLRHCSLLCNPLSCVPALEAPPSLVSLGCSGGCPRLSLAGSASPFPFLTALLSLLNTLAQIHKGLCGQLAAILAAPGLQNYFLQCVAPGAAPHLTPFSAWALRHEYHLQYLALALAQKAAALQPLPATHAALYHGMALALLSRLLPGSEYLTHELLLSCVFRLEFLPERTSGGPEAADFSDQLSLGSSRVPRCGQGTLLAQACQDLPSIRNCYLTHCSPARASLLASQALHRGELQRVPTLLLPMPTEPLLPTDWPFLPLIRLYHRASDTPSGLSPTDTMGTAMRVLQWVLVLESWRPQALWAVPPAARLARLMCVFLVDSELFRESPVQHLVAALLAQLCQPQVLPNLNLDCRLPGLTSFPDLYANFLDHFEAVSFGDHLFGALVLLPLQRRFSVTLRLALFGEHVGALRALSLPLTQLPVSLECYTVPPEDNLALLQLYFRTLVTGALRPRWCPVLYAVAVAHVNSFIFSQDPQSSDEVKAARRSMLQKTWLLADEGLRQHLLHYKLPNSTLPEGFELYSQLPPLRQHYLQRLTSTVLQNGVSET
For the molecule B6, the binding result was “binds”.

B7: DNA polymerase delta subunit 3 (protein, UniProt Q15054 1-466)
chain: MADQLYLENIDEFVTDQNKIVTYKWLSYTLGVHVNQAKQMLYDYVERKRKENSGAQLHVTYLVSGSLIQNGHSCHKVAVVREDKLEAVKSKLAVTASIHVYSIQKAMLKDSGPLFNTDYDILKSNLQNCSKFSAIQCAAAVPRAPAESSSSSKKFEQSHLHMSSETQANNELTTNGHGPPASKQVSQQPKGIMGMFASKAAAKTQETNKETKTEAKEVTNASAAGNKAPGKGNMMSNFFGKAAMNKFKVNLDSEQAVKEEKIVEQPTVSVTEPKLATPAGLKKSSKKAEPVKVLQKEKKRGKRVALSDDETKETENMRKKRRRIKLPESDSSEDEVFPDSPGAYEAESPSPPPPPSPPLEPVPKTEPEPPSVKSSSGENKRKRKRVLKSKTYLDGEGCIVTEKVYESESCTDSEEELNMKTSSVHRPPAMTVKKEPREERKGPKKGTAALGKANRQVSITGFFQRK
Take B7: the binding entry was “binds”.

The values above are taken from paper PMC5216374.
